The other results are listed elsewhere or left out.
How the values were obtained:
Test in all cases: log2 fold change, soluble protein after heating vs DMSO (PISA); higher = thermal stabilisation; K562 lysate, 10 uM; active = over 0.2 and 3.5 SD of the protein, either way, in both replicates (recomputed)
nilotinib = compound: Cc1cn(-c2cc(NC(=O)c3ccc(C)c(Nc4nccc(-c5cccnc5)n4)c3)cc(C(F)(F)F)c2)cn1 [nilotinib]
Method in brief: (§1)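 K562 pellets were dounce-homogenised in PBS pH 7.4 containing 1 mM MgCl2, and the crude extract, at 1 mg/mL protein, was exposed to 10 μM compound for 30 min. Aliquots were heated for 3 min across 48°C-58°C, pooled, brought to 0.5% NP-40 at 4°C and spun at 21,000xg for 90 min, with the supernatant taken as soluble protein. TMTpro 16plex LC-MS/MS with equalised channel sums quantified that protein. Values are log-two fold changes in thermal stability relative to solvent controls, taken from duplicates.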

Chains of the proteins cited; added tags and fusions are not shown. Lines headed by an entry give the natural chain unless they say otherwise; changes in a name come on top.
UniProt Q13136: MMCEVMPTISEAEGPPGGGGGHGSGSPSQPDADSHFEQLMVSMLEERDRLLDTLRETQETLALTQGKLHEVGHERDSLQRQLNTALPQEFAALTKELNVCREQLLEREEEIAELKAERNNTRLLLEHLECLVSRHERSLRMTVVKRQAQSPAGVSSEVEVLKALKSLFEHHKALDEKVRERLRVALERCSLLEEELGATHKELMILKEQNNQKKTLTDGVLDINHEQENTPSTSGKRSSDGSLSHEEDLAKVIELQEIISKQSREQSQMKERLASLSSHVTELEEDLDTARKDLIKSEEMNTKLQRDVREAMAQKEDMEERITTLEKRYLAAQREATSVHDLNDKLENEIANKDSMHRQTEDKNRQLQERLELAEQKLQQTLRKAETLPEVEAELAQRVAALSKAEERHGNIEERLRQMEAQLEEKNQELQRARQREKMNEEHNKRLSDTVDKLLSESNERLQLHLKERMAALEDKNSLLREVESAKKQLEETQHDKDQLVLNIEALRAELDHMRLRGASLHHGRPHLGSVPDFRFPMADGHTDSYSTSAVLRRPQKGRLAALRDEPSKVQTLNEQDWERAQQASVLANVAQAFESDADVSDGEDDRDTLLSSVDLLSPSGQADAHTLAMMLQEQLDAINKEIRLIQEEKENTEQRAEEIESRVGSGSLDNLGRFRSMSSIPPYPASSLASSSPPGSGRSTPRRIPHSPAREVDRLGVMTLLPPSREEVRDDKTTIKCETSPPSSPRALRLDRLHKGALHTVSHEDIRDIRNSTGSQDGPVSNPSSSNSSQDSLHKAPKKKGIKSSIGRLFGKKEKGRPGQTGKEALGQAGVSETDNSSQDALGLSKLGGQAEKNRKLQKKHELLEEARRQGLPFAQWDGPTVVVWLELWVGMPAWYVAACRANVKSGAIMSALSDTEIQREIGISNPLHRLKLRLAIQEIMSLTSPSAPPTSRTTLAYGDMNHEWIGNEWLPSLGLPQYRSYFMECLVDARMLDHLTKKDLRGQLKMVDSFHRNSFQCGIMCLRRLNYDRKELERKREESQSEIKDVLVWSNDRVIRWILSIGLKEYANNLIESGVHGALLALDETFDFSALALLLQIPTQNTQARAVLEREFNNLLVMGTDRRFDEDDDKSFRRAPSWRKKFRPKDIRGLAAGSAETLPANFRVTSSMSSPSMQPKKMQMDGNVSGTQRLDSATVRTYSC
UniProt Q9Y2G5: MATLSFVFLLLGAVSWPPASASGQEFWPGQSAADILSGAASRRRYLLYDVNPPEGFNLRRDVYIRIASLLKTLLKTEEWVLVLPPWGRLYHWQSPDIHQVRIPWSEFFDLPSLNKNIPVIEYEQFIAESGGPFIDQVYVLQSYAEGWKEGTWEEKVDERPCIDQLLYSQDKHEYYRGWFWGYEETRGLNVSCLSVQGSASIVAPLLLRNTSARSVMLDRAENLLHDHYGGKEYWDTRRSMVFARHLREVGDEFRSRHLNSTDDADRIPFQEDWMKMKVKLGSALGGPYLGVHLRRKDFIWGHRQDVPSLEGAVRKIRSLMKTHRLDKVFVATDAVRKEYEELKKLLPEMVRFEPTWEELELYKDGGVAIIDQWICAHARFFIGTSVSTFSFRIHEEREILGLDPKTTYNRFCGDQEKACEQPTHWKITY
UniProt Q9NW08: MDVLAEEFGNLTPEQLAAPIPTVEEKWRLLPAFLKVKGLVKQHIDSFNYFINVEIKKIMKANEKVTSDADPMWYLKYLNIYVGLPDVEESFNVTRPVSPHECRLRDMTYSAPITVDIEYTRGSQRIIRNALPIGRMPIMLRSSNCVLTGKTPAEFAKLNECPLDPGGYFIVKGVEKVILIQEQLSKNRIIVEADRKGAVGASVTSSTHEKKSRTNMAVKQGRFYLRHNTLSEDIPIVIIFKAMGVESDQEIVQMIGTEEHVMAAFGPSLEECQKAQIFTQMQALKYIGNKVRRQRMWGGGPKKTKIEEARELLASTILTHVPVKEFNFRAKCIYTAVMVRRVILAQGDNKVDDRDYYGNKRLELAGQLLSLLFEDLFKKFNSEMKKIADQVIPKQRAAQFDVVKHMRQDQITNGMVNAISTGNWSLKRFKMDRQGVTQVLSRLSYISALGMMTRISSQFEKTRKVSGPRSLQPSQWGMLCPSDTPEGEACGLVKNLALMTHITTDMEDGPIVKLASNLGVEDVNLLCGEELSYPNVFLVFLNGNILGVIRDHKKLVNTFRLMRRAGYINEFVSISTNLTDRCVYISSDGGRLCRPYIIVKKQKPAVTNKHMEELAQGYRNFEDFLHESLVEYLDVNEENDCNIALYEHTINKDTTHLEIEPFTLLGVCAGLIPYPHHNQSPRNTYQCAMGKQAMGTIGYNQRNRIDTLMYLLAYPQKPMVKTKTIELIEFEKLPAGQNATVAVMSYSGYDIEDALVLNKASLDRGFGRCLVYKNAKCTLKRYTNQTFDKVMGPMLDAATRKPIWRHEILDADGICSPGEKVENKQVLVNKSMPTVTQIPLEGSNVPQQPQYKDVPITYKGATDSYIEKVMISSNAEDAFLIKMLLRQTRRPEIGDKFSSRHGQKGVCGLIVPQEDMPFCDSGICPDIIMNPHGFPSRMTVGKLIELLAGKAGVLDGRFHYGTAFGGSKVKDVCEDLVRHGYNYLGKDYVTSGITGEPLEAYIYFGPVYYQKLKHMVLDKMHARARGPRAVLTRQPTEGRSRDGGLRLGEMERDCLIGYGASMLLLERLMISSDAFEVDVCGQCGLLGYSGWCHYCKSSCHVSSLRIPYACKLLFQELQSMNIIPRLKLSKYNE
UniProt Q9UNP9: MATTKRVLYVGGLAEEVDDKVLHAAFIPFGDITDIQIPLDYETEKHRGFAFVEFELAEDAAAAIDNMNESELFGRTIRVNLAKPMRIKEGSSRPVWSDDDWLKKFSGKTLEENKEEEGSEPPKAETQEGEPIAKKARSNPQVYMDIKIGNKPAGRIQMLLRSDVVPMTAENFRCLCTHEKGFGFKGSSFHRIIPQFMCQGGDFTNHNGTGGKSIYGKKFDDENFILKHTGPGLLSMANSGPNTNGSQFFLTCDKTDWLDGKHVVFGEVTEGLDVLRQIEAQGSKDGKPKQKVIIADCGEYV
UniProt Q6P1K2: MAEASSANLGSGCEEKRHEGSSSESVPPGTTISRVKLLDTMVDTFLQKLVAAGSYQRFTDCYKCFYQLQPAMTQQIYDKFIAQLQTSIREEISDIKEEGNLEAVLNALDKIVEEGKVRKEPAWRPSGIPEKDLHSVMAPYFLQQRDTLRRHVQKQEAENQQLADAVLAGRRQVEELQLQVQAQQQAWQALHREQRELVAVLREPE
UniProt P05423: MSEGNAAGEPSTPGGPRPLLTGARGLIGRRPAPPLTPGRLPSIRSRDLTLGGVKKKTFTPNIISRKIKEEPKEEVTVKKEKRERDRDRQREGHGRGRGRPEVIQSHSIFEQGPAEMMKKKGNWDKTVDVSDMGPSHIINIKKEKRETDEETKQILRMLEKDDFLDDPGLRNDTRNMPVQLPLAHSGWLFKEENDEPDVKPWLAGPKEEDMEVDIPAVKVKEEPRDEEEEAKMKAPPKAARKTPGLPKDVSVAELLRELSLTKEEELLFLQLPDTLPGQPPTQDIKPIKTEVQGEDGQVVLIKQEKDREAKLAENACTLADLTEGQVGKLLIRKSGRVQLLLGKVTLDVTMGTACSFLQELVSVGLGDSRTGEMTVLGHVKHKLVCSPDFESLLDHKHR
UniProt Q06203, whole entry, looked up: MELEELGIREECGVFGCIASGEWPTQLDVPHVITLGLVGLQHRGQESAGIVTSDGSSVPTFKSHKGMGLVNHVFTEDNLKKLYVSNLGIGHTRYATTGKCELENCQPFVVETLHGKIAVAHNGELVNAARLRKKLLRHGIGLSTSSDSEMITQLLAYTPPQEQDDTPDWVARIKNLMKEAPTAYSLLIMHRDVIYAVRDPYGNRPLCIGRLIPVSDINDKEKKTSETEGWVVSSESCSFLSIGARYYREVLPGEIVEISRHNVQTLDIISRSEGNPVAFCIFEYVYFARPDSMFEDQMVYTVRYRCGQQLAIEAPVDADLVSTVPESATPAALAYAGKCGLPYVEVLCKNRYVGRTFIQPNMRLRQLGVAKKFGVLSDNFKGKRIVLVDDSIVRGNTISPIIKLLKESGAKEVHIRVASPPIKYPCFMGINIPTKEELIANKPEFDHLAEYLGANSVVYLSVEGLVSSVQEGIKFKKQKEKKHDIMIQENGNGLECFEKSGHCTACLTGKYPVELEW
UniProt Q99575: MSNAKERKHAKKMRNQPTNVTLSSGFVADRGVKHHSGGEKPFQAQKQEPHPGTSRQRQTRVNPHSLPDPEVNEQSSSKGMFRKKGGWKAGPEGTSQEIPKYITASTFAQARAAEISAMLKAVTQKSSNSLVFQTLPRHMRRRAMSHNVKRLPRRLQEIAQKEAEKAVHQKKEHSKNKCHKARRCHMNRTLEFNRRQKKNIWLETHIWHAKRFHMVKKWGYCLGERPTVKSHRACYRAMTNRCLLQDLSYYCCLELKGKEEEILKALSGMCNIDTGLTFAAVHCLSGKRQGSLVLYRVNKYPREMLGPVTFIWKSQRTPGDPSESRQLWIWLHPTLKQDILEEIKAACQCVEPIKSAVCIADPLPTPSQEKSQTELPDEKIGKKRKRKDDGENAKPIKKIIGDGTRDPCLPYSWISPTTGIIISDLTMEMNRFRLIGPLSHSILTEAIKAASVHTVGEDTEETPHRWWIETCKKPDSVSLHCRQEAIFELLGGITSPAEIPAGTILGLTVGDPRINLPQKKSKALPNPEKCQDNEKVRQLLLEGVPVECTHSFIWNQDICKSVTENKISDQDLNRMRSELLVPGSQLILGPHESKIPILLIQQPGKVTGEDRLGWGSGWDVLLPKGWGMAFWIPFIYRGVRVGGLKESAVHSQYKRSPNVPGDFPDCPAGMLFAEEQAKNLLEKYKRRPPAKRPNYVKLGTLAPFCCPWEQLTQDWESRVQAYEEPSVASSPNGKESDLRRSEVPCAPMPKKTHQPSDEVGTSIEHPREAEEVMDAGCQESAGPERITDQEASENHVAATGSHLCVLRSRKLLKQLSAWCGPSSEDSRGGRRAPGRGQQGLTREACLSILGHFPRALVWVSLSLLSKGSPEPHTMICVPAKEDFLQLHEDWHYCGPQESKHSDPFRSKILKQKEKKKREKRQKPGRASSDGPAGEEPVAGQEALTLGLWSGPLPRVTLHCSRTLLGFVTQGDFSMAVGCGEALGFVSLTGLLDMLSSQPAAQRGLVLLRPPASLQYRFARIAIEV
UniProt P54278: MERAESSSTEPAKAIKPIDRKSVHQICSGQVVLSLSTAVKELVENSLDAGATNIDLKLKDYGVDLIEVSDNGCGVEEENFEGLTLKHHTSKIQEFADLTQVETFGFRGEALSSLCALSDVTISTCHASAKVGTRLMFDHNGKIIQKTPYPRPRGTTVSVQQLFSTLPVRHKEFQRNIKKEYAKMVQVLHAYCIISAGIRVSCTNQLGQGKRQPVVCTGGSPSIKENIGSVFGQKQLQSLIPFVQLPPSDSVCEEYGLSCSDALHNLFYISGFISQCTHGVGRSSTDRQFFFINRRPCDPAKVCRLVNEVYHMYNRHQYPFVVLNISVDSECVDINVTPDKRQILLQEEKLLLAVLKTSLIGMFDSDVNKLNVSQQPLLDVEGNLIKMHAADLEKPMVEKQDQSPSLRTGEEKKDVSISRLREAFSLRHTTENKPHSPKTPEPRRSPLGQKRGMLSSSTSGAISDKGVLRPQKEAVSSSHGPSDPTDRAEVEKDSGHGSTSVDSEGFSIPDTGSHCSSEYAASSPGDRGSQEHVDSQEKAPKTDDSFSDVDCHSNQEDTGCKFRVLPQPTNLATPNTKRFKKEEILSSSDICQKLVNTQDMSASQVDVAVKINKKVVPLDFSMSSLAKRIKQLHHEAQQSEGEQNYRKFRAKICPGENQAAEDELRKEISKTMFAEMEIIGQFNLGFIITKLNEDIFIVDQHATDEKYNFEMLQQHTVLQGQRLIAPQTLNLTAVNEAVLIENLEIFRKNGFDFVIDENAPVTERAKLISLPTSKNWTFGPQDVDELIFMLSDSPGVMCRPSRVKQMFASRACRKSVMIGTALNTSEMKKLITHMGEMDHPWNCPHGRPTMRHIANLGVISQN
UniProt Q10713: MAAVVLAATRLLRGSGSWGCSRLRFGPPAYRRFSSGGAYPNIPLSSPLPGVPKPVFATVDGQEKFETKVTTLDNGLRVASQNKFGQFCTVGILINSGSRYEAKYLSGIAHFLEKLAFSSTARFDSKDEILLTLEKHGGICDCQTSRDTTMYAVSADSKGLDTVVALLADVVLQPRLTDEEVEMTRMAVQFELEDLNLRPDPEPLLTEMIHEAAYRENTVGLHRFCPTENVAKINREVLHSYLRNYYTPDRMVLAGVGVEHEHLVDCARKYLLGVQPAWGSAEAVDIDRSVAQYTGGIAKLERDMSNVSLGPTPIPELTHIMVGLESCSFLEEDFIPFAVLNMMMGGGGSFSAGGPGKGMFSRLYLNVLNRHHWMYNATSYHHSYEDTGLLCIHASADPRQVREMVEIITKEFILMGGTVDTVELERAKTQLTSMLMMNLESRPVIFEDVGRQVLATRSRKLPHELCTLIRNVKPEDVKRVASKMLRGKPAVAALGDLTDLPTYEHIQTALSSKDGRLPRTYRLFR

[1] = compound: Cc1nc(Nc2n[nH]c3c2CN(C(=O)N[C@H](CN(C)C)c2ccccc2)C3(C)C)c2sccc2n1
Method in brief: as §1

dasatinib = compound: Cc1nc(Nc2ncc(C(=O)Nc3c(C)cccc3Cl)s2)cc(N2CCN(CCO)CC2)n1 [dasatinib]
Method in brief: as §1

[2] = compound: Cc1ncc(-c2ccnc(Nc3ccc(S(C)(=O)=O)cc3)n2)n1C(C)C
Method in brief: as §1

[3] = compound: Cn1cc(-c2ccc3c(c2)CCN3C(=O)Cc2cccc(C(F)(F)F)c2)c2c(N)ncnc21
Method in brief: as §1

quisinostat = compound: Cn1cc(CNCC2CCN(c3ncc(C(=O)NO)cn3)CC2)c2ccccc21 [quisinostat]
Method in brief: as §1

tipifarnib = compound: Cn1cncc1[C@@](N)(c1ccc(Cl)cc1)c1ccc2c(c1)c(-c1cccc(Cl)c1)cc(=O)n2C [tipifarnib]
Method in brief: as §1

[4] = compound: NC(=O)Nc1cc(-c2cccc(F)c2)sc1C(=O)N[C@H]1CCCNC1
Method in brief: as §1

[5] = compound: NC(=O)c1cnc(N[C@@H]2CCCC[C@@H]2N)nc1Nc1cccc(-n2nccn2)c1
Method in brief: as §1

[6] = compound: NC1(c2ccc(-c3nc4ccn5c(=O)[nH]nc5c4cc3-c3ccccc3)cc2)CCC1
Method in brief: as §1

[7] = compound: NCC(=O)Nc1ccc(-n2nc(C(F)(F)F)cc2-c2ccc3c(ccc4ccccc43)c2)cc1
Method in brief: as §1

vorinostat = compound: O=C(CCCCCCC(=O)Nc1ccccc1)NO [vorinostat]
Method in brief: as §1

silmitasertib = compound: O=C(O)c1ccc2c(c1)nc(Nc1cccc(Cl)c1)c1ccncc12 [silmitasertib]
Method in brief: as §1

[8] = compound: O=C1NC(=O)C(c2cnc3ccccn23)=C1c1cn2c3c(cc(F)cc13)CN(C(=O)N1CCCCC1)CC2
Method in brief: as §1

entospletinib = compound: c1cn2cc(-c3ccc4cn[nH]c4c3)nc(Nc3ccc(N4CCOCC4)cc3)c2n1 [entospletinib]
Method in brief: as §1

Measured: log2 fold change

PPFIA1 (UniProt Q13136)
inactive: nilotinib -0.06 | [1] -0.061 | dasatinib -0.041 | [2] -0.011 | [3] 0.046 | quisinostat 0.014 | tipifarnib 0.002 | [4] 0.011 | [5] 0.046 | [6] -0.006 | [7] 0.013 | vorinostat 0.003 | silmitasertib -0.007 | [8] -0.032 | entospletinib -0.015

POFUT2 (UniProt Q9Y2G5)
inactive: nilotinib -0.007 | [1] -0.02 | dasatinib -0.051 | [2] 0.062 | [3] -0.03 | quisinostat -0.053 | tipifarnib -0.016 | [4] 0.04 | [5] -0.031 | [6] 0.003 | [7] -0.022 | vorinostat 0.086 | silmitasertib -0.034 | [8] -0.067 | entospletinib -0.026

POLR3B (UniProt Q9NW08)
inactive: nilotinib -0.016 | [1] -0.014 | dasatinib -0.019 | [2] -0.003 | [3] -0.026 | quisinostat -0.013 | tipifarnib 0.044 | [4] 0.026 | [5] 0.009 | [6] 0.027 | [7] 0.004 | vorinostat -0.202 | silmitasertib 0 | [8] -0.041 | entospletinib -0.044

PPIE (UniProt Q9UNP9)
inactive: nilotinib -0.027 | [1] 0.017 | dasatinib -0.017 | [2] -0.01 | [3] -0.016 | quisinostat -0.091 | tipifarnib -0.003 | [4] -0.018 | [5] 0.04 | [6] -0.034 | [7] 0.024 | vorinostat 0.096 | silmitasertib 0.035 | [8] -0.045 | entospletinib -0.036

POLE (UniProt Q07864)
inactive: nilotinib 0.022 | [1] 0.015 | dasatinib -0.054 | [2] -0.002 | [3] 0.053 | quisinostat 0.004 | tipifarnib 0.003 | [4] 0.054 | [5] -0.04 | [6] -0.031 | [7] -0.006 | vorinostat -0.183 | silmitasertib 0.051 | [8] 0.003 | entospletinib 0.009

PMF1 (UniProt Q6P1K2)
inactive: nilotinib 0.018 | [1] -0.034 | dasatinib 0.044 | [2] -0.02 | [3] -0.052 | quisinostat 0.073 | tipifarnib 0 | [4] -0.036 | [5] 0.011 | [6] 0.027 | [7] 0.011 | vorinostat 0.001 | silmitasertib -0.024 | [8] -0.024 | entospletinib -0.044

POLR2G (UniProt P62487)
inactive: nilotinib 0.01 | [1] -0.02 | dasatinib -0.024 | [2] 0.007 | [3] 0 | quisinostat 0.01 | tipifarnib 0.007 | [4] 0.001 | [5] 0.011 | [6] -0.016 | [7] 0.001 | vorinostat 0.116 | silmitasertib -0.043 | [8] -0.03 | entospletinib 0.014

POP7 (UniProt O75817)
inactive: nilotinib -0.017 | [1] -0.198 | dasatinib 0.015 | [2] 0.016 | [3] -0.024 | quisinostat 0.03 | tipifarnib -0.14 | [4] 0.016 | [5] -0.019 | [6] -0.013 | [7] 0.034 | vorinostat 0.192 | silmitasertib -0.048 | [8] -0.019 | entospletinib 0.014

PNISR (UniProt Q8TF01)
inactive: nilotinib -0.022 | [1] 0.023 | dasatinib 0.018 | [2] -0.017 | [3] -0.027 | quisinostat 0.014 | tipifarnib 0.003 | [4] -0.021 | [5] -0.011 | [6] 0.006 | [7] 0.028 | vorinostat 0.121 | silmitasertib -0.022 | [8] -0.035 | entospletinib 0.004

PLK1 (UniProt P53350)
active: vorinostat -0.638
inactive: nilotinib 0.014 | [1] -0.073 | dasatinib -0.004 | [2] 0.008 | [3] -0.015 | quisinostat -0.021 | tipifarnib 0.032 | [4] -0.193 | [5] -0.043 | [6] 0.01 | [7] 0.027 | silmitasertib 0.005 | [8] 0.022 | entospletinib 0.072

POFUT1 (UniProt Q9H488)
inactive: nilotinib -0.026 | [1] 0.01 | dasatinib 0.042 | [2] -0.033 | [3] -0.036 | quisinostat 0.089 | tipifarnib -0.051 | [4] 0.021 | [5] -0.034 | [6] 0.042 | [7] -0.016 | vorinostat 0.131 | silmitasertib -0.026 | [8] -0.002 | entospletinib 0.018

Reprinted from the results shown (two entries):
POLR2G (UniProt P62487)
inactive: nilotinib 0.01 | [1] -0.02 | dasatinib -0.024 | [2] 0.007 | [3] 0 | quisinostat 0.01 | tipifarnib 0.007 | [4] 0.001 | [5] 0.011 | [6] -0.016 | [7] 0.001 | vorinostat 0.116 | silmitasertib -0.043 | [8] -0.03 | entospletinib 0.014

POP7 (UniProt O75817)
inactive: nilotinib -0.017 | [1] -0.198 | dasatinib 0.015 | [2] 0.016 | [3] -0.024 | quisinostat 0.03 | tipifarnib -0.14 | [4] 0.016 | [5] -0.019 | [6] -0.013 | [7] 0.034 | vorinostat 0.192 | silmitasertib -0.048 | [8] -0.019 | entospletinib 0.014

Following part.

PNPT1 (UniProt Q8TCS8)
inactive: nilotinib -0.012 | [1] 0.001 | dasatinib -0.001 | [2] -0.002 | [3] 0.013 | quisinostat -0.043 | tipifarnib 0.002 | [4] 0.02 | [5] 0.017 | [6] -0.009 | [7] 0.007 | vorinostat 0.056 | silmitasertib -0.02 | [8] -0.007 | entospletinib 0.004

POLR3D (UniProt P05423)
inactive: nilotinib -0.019 | [1] 0.011 | dasatinib -0.004 | [2] 0.012 | [3] -0.095 | quisinostat -0.055 | tipifarnib 0.025 | [4] -0.009 | [5] 0.002 | [6] -0.021 | [7] 0.007 | vorinostat -0.063 | silmitasertib -0.021 | [8] 0 | entospletinib -0.016

POLDIP2 (UniProt Q9Y2S7)
inactive: nilotinib -0.018 | [1] -0.031 | dasatinib 0.011 | [2] -0.004 | [3] -0.008 | quisinostat 0.046 | tipifarnib -0.02 | [4] -0.002 | [5] 0.036 | [6] -0.004 | [7] -0.021 | vorinostat 0.193 | silmitasertib 0.026 | [8] -0.014 | entospletinib 0.016

POLR2C (UniProt P19387)
inactive: nilotinib 0.042 | [1] 0.002 | dasatinib -0.052 | [2] 0.086 | [3] 0.032 | quisinostat -0.046 | tipifarnib -0.019 | [4] 0.018 | [5] 0.016 | [6] 0.107 | [7] 0.025 | vorinostat -0.154 | silmitasertib -0.025 | [8] 0.016 | entospletinib 0.021

PPAT (UniProt Q06203)
inactive: nilotinib -0.008 | [1] 0.009 | dasatinib 0.024 | [2] 0.014 | [3] -0.002 | quisinostat 0.038 | tipifarnib 0.009 | [4] -0.048 | [5] -0.008 | [6] -0.017 | [7] 0.013 | vorinostat 0.095 | silmitasertib 0 | [8] -0.012 | entospletinib 0.026

POP1 (UniProt Q99575)
inactive: nilotinib 0.018 | [1] 0.023 | dasatinib -0.005 | [2] -0.003 | [3] -0.016 | quisinostat -0.023 | tipifarnib 0.015 | [4] -0.001 | [5] 0.003 | [6] 0.007 | [7] 0.016 | vorinostat 0.077 | silmitasertib -0.019 | [8] 0.01 | entospletinib 0.008

PMS2 (UniProt P54278)
active: vorinostat -0.384
inactive: nilotinib -0.024 | [1] -0.021 | dasatinib -0.1 | [2] 0.039 | [3] 0.047 | quisinostat -0.011 | tipifarnib -0.078 | [4] 0.043 | [5] 0 | [6] -0.006 | [7] 0.064 | silmitasertib 0.026 | [8] 0.027 | entospletinib 0.001

POMGNT2 (UniProt Q8NAT1)
inactive: nilotinib 0.051 | [1] -0.046 | dasatinib 0.009 | [2] 0.078 | [3] -0.015 | quisinostat -0.079 | tipifarnib -0.114 | [4] 0.06 | [5] -0.038 | [6] 0.012 | [7] -0.105 | vorinostat 0.005 | silmitasertib 0.024 | [8] -0.013 | entospletinib 0.013

PPIB (UniProt P23284)
inactive: nilotinib -0.004 | [1] -0.008 | dasatinib -0.01 | [2] -0.013 | [3] -0.026 | quisinostat 0.04 | tipifarnib 0.009 | [4] -0.006 | [5] 0.006 | [6] 0.003 | [7] 0.014 | vorinostat 0.102 | silmitasertib -0.002 | [8] 0.009 | entospletinib -0.011

PMPCA (UniProt Q10713)
active: dasatinib 0.672
inactive: nilotinib 0.005 | [1] 0.052 | [2] 0 | [3] -0.017 | quisinostat -0.041 | tipifarnib 0.187 | [4] -0.013 | [5] -0.009 | [6] 0.003 | [7] 0.031 | vorinostat 0.033 | silmitasertib -0.044 | [8] 0.003 | entospletinib -0.019

— the supplement of paper PMC10849652
